Source: PubChem BioAssay AID720505 (Drosophila RNAi Screening Center, 2013)

Purpose: 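Fly regulators or components of the CRAC channel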 (primary screen)
Cells: Drosophila S2R+ cells
Knock-down reagent: long dsRNA against Drosophila genes
Conditions: thapsigargin (2 µM) in calcium-free buffer to empty internal stores, then 2 mM calcium added back
Measurement: 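Stores emptied by 2 µM thapsigargin without calcium, then 2 mM calcium re-added; fluo-4 fluorescence followed by FLIPR in 384-well plates, per-well averaged endpoint, raw; two screen passes, some wells retested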
Reading the numbers: calcium signal and retest calcium signal: higher = more calcium entry after store depletion
Rule for the call: 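About 1500 genes called as lowering calcium entry, by varying amounts, judged against per-plate control wells with STIM1 as positive and Rho1 as negative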
Calls: active = called as lowering calcium entry; inactive = not called
The screen tested about 20,000 reagents; below is an unselected part of those with a known target gene and a result. In the full data, about 2,100 (10%) got an active call. 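Raw plate signals without normalisation; calls rest on control-based scores that were not deposited; replicate 2 separates called from uncalled poorly.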 Unmarked entries are inactive. Reagents against one gene are numbered here. Names joined by + are all predicted targets of the reagent. The record does not give: the amount of reagent, the time to read-out.

target gene | dsRNA no. | calcium signal, replicate 1 | calcium signal, replicate 2 | retest calcium signal, replicate 1 | retest calcium signal, replicate 2
peg (pegasus) | 1 | 164 | 177 | – | –
CG13227 | 1 | 74.7 | 103 | 75.3 | 73.6
CG33017 | 1 | 163 | 192 | – | –
CG33017 | 2 | 185 | 142 | – | –
CG6569 | 1 | 167 | 180 | – | –
msps (mini spindles) | 1 | 134 | 161 | – | –
Or63a (Odorant receptor 63a) | 1 | 65.4 | 115 | – | –
cag | 1 | 123 | 184 | – | –
Kaz-m1 (Kazal-type protease inhibitor m1) | 1 | 210 | 123 | – | –
CG31267 | 1 | 114 | 139 | – | –
snoRNA:Me28S-C3420b + RpS11 | 1 | 117 | 178 | – | –
CG32305 | 1 | 76.4 | 116 | – | –
CG10395 | 1 | 134 | 162 | – | –
Rip11 (Rab11 interacting protein) | 1 | 197 | 150 | – | –
NetA (Netrin-A) | 1 | 104 | 113 | – | –
PH4alphaNE2 (prolyl-4-hydroxylase-alpha NE2) | 1 | 138 | 143 | – | –
CG8565 | 1 | 84.4 | 115 | – | –
RpL30 (Ribosomal protein L30) | 1 | 83.7 | 87.2 | – | –
Ctps (CTP synthase) | 1 | 104 | 120 | – | –
Ctps (CTP synthase) | 2 | 72.4 | 147 | – | –
Ocho | 1 | 75.1 | 137 | – | –
CG1344 | 1 | 117 | 107 | – | –
CG10505 | 1 | 127 | 118 | – | –
Cad99C (Cadherin 99C) | 1 | 191 | 154 | – | –
Cad99C (Cadherin 99C) | 2 | 123 | 124 | – | –
Kaz1-ORFB | 1 | 96.3 | 155 | – | –
Irk1 (Inwardly rectifying potassium channel 1) | 1 | 255 | 131 | – | –
Irk1 (Inwardly rectifying potassium channel 1) | 2 | 311 | 205 | – | –
CG9109 | 1 | 122 | 271 | – | –
galene | 1 | 107 | 141 | – | –
galene | 2 | 85.2 | 101 | – | –
Oamb (Octopamine receptor in mushroom bodies) | 1 | 127 | 110 | – | –
Oamb (Octopamine receptor in mushroom bodies) | 2 | 204 | 154 | – | –
Cyp6a21 (Cytochrome P450 6a21) | 1 | 87.8 | 174 | – | –
Bre1 | 1 | 62.7 (active) | 120 | – | –
nanos | 1 | 219 | 128 | – | –
PolH (DNA polymerase eta) | 1 | 120 | 107 | – | –
CG34276 | 1 | 127 | 199 | – | –
Phs (Phaser) | 1 | 127 | 96.8 | – | –

12 entries from above, limited to “calcium signal, replicate 1”.
msps (mini spindles) = 134
Or63a (Odorant receptor 63a) = 65.4
cag = 123
Kaz-m1 (Kazal-type protease inhibitor m1) = 210
CG31267 = 114
snoRNA:Me28S-C3420b + RpS11 = 117
CG32305 = 76.4
CG10395 = 134
Rip11 (Rab11 interacting protein) = 197
NetA (Netrin-A) = 104
PH4alphaNE2 (prolyl-4-hydroxylase-alpha NE2) = 138
CG8565 = 84.4

Next reagents:
target gene | dsRNA no. | calcium signal, replicate 1 | calcium signal, replicate 2 | retest calcium signal, replicate 1 | retest calcium signal, replicate 2
CG31809 | 1 | 75.2 | 131 | – | –
E(spl)m5-HLH (Enhancer of split m5, helix-loop-helix) | 1 | 244 | 90.9 | – | –
CG17154 | 1 | 83.1 | 98.8 | – | –
AttD (Attacin-D) | 1 | 79.5 | 235 | – | –
CG1835 | 1 | 65.8 (active) | 179 | – | –
PIG-K (Phosphatidylinositol glycan anchor biosynthesis class K) | 1 | 102 | 117 | – | –
MED24 (Mediator complex subunit 24) | 1 | 94.9 | 82.8 | – | –
CG7264 | 1 | 62.1 (active) | 78.6 | – | –
CG14659 | 1 | 59.4 (active) | 105 | – | –
TMEM216 (Transmembrane protein 216) | 1 | 147 | 180 | – | –
BomBc1 (Bomanin Bicipital 1) | 1 | 222 | 210 | – | –
CG5776 | 1 | 95.8 | 140 | – | –
bap (bagpipe) | 1 | 91.4 | 136 | – | –
Dtwd2 + Obp84a | 1 | 71.8 (active) | 141 | – | –
Fadd (Fas-associated death domain) | 1 | 132 | 174 | – | –
NijB (Ninjurin B) | 1 | 124 | 192 | – | –
Prosalpha3 (Proteasome alpha3 subunit) | 1 | 65.6 | 135 | – | –
Rpp14b (Ribonuclease P/MRP subunit p14 b) | 1 | 172 | 112 | – | –
Obp59a (Odorant-binding protein 59a) | 1 | 131 | 203 | – | –
mRRF1 (mitochondrial ribosome recycling factor 1) | 1 | 128 | 131 | – | –
LysB (Lysozyme B) | 1 | 65 | 120 | – | –
ReepB (Receptor expression enhancing protein B) | 1 | 165 | 167 | – | –
wat (waterproof) | 1 | 138 | 153 | – | –
CG10948 | 1 | 73.8 | 85.4 | – | –
Strip (Striatin interacting protein) | 1 | 76.7 | 111 | – | –
CG33506 | 1 | 103 | 102 | – | –
alph (alphabet) | 1 | 101 | 102 | – | –
CG14664 | 1 | 117 | 92.7 | – | –
ppk10 (pickpocket 10) | 1 | 136 | 77.7 | – | –
mys (myospheroid) | 1 | 168 | 139 | – | –
CG14207 | 1 | 94 | 112 | – | –
CG14207 | 2 | 191 | 91.9 | – | –
B52 | 1 | 114 | 116 | 84.5 | 105
CG3342 | 1 | 100 | 118 | – | –
dsx-c73A (doublesex cognate 73A) | 1 | 115 | 160 | – | –
dsx-c73A (doublesex cognate 73A) | 2 | 91.5 | 218 | – | –
Hip14 (Huntingtin-interacting protein 14) | 1 | 108 | 124 | – | –
Cda5 (Chitin deacetylase-like 5) | 1 | 75.2 (active) | 105 | 7271 | 159
Cda5 (Chitin deacetylase-like 5) | 2 | 198 | 161 | – | –
Cda5 (Chitin deacetylase-like 5) | 3 | 174 | 144 | – | –
Cda5 (Chitin deacetylase-like 5) | 4 | 101 | 90.1 | – | –
CG16926 | 1 | 142 | 134 | – | –
pAbp (poly(A) binding protein) | 1 | 126 | 91.3 | – | –
CG12744 | 1 | 163 | 193 | – | –
